According to patent US20230029635A1 (US Dept. of Health and Human Services, published 2023):
No constants are given. Whether binding was seen depends on the method and setting. Some results given as binding are weak or reduced against the parent protein; the word gives no strength.

Chains of the proteins cited; added tags and fusions are not shown. Lines headed by an entry give the natural chain unless they say otherwise; changes in a name come on top. Residues count along the entry.
UniProt P01024: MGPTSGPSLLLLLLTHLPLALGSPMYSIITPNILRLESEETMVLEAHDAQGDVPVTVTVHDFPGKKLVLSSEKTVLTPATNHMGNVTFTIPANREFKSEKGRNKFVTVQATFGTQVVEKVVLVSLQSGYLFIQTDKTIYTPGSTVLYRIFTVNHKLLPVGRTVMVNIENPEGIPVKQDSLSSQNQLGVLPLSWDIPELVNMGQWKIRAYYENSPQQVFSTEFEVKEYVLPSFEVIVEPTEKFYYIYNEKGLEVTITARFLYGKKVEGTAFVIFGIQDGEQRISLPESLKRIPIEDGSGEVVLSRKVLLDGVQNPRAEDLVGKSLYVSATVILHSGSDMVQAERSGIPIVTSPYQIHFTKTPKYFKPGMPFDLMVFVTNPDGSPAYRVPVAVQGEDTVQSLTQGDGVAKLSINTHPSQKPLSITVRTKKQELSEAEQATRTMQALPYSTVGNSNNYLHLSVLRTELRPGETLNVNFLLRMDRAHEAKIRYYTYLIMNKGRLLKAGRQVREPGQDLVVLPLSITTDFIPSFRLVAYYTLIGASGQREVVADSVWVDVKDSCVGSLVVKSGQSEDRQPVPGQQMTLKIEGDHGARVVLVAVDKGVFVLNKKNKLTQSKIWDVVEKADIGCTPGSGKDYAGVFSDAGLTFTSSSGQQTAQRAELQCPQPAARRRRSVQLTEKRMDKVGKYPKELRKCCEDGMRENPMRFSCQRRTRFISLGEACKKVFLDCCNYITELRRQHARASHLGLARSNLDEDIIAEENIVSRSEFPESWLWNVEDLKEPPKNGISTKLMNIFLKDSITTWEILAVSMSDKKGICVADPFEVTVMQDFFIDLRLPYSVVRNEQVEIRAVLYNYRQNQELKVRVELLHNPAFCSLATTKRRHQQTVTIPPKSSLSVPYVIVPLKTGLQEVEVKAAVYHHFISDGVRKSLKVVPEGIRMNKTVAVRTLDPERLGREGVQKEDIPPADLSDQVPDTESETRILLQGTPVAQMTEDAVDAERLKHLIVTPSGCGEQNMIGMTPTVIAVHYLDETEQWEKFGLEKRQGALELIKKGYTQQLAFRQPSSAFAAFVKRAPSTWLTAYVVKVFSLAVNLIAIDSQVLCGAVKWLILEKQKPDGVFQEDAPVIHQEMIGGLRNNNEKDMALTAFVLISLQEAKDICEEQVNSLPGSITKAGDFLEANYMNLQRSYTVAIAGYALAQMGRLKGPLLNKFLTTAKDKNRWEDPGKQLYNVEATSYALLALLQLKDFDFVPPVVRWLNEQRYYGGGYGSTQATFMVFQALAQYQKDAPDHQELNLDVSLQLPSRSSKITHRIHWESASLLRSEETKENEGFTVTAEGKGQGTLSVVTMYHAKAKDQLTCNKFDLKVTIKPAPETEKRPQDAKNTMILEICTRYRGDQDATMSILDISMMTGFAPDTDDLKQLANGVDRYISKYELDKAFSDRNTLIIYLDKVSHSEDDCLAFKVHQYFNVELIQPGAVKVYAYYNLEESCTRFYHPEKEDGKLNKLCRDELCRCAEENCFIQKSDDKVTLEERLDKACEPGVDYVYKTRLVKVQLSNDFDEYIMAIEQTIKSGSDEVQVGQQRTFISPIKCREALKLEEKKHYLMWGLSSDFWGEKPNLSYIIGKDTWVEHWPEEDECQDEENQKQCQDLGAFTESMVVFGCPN
Human serum C3: residues 23-1663 of P01024
Human complement protein C3d (hC3d): residues 1002-1303 of P01024

How the values were obtained:
[1] = target: Human serum C3 (human) (UniProt P01024); assay: zymosan ELISA, competition by C3 in human serum for Fab binding to deposited human C3 fragments (FIG. 11)
[2] = target: Human serum C3 (human) (UniProt P01024); assay: competition zymosan ELISA: human serum (C3) at 1/10 to 1/6250 competes with zymosan-deposited human C3 fragments for the His-tagged Fab at 1 µg/mL
[3] = target: Human serum C3 (human) (UniProt P01024); assay: competition zymosan ELISA: human serum (C3) at 1/2 to 1/1250 premixed with the His-tagged Fab at 15 µg/mL competes with zymosan-deposited human C3 fragments
[4] = target: Human complement protein C3d (hC3d) (human) (UniProt P01024); assay: binding to immobilized human C3d with or without normal human serum; legend of FIG. 1
[5] = target: Human complement protein C3d (hC3d) (human) (UniProt P01024); assay: binding of 10 µg/ml antibody to immobilized C3d with NHS at 1/2 to 1/50 dilution or PBS (FIG. 1)
[6] = target: Human complement protein C3d (hC3d) (human) (UniProt P01024); assay: ELISA on immobilized human C3d, antibody at 10 µg/ml, in PBS or with normal human serum 1/2 to 1/50 (y axis without label)
[7] = target: Human serum C3 (human) (UniProt P01024); assay: competition ELISA: normal human serum (source of full-length C3) at 1/2 to 1/50 competes with immobilized human C3d for the antibody at 10 µg/ml

Row | Binder | binding [1] | binding [2] | binding [3] | binding [4] | binding [5] | binding [6] | binding [7]
1 | 3NS3 (Fab, V domains shown, Chimeric rabbit/human Fab, lambda, with 6xHis tag) VH: QSLEESGGGLVTPGTPLTLTCTVSGIDLSAYAMTWVRQAPGKGLEWIGMISTDGATYYASWAKGRFTISKTSTTADLTITSPTTEDTATYFCARGLTNFFIWGPGTLVTISS VL: QPVLTQSPSASATLGSSAKLTCTLSSAHSTYTIAWYQQKQGESPRCLMYLKSDGSYTRGTGVPDRFSGSSSGADRYLIIPNVQADDEADYYCGADYSGGYLFGGGTQLTVTG | binds | binds | binds |  |  |  | 
2 | 3NS2 (Fab, V domains shown, Chimeric rabbit/human Fab, lambda, with 6xHis tag) VH: QSVEESGGRLVTPGTPLTLTCTVSGIDLSSYSMGWVRQAPGKGLEWIGIIYNTGRIDYANWAKGRFTISKTSTTVDLKITSPTIGDTATYFCGRGYPGDIWGPGTLVTVSS VL: DVVMTQTPSSVSAAVGGTVTIKCQASESIYSDLAWYQQKPGQRPKLLIYFASTLASGVPSRFKGSGSGTEYTLTISGVQREDAATYYCLGDYGNSWAFGAGTKVEIK | binds | binds | binds |  |  |  | 
3 | 3NS1 (Fab, V domains shown, Chimeric rabbit/human Fab, lambda, with 6xHis tag; also called 3NS1 r/h-IgG1λ) VH: QSVEESGGRLVTPGTPLTLTCTVSGFSLSNYIITWVRQAPGKGLEWIGMISTDGDTYYANWAKGRFTISKTSTTANLKITSPTTEDTATYFCARGLTNFFIWGPGTLVTVSS VL: QPVLTQSPSVSAALGASAKLTCTLSSAHKTYSIGWYQQHQGEAPRFLMQLRRDGSYTKGTGVPDHFSGSSSGADRYLIIPNVQADDEADYYCGVDYDGGYVFGGGTQLTVTG |  |  |  | binds | binds | binds | 
4 | 3N02 (Fab, V domains shown, Chimeric rabbit/human Fab (rabbit variable domains, human kappa constant domain) with 6xHis tag in SPR, zymosan ELISA and flow cytometry; also called 3N02 r/h-IgG1k) VH: QKQLVESGGRLVTPGGSLTLTCTISGIDLNTYGMTWVRQAPGKGLEYIGIIVSSGNTYYANWAQGRFTISKTSTTVDLKMTSLTASDTATYFCARGLGRAYSSGYGMDGWGPGTLVTVSS VL: DPVLTQTPSSTSAAVGGTVTIKCQASQNIYTSLAWYQQKPGQPPKLLIYGASNLASGVPSRFKGSRSGTEYTLTISGVEREDAATYYCLGSYTQIDTTFGGGTKLEIK | binds | binds | binds |  |  | binds | binds
5 | d301 (Fab, V domains shown, Chimeric rabbit/human Fab, kappa, with 6xHis tag; also called Fab d301; d301 r/h-IgG1k) VH: QSLEESGGRLVTPGTPLTLTCTVSGFSLSTYTLGWVRQAPGKGLEYIGWIDSSGSAYYASWAKGRFTISKASSTTVDLKMAGLTTEDTATYFCASGNTGGDPLYYGMDPWGPGTLVTVSS VL: DPVLTQTPSSTSAAVGGTVTIKCQASQNIGRWLAWYQQKPGQPPKLLIYRASDLASGVPSRFKGSGSGTQFTLTISGVQREDAATYYCLGSYSSSDSAFGGGTEVVVK | binds | binds | binds |  |  | binds | binds
6 | 3N07 (Fab, V domains shown, Chimeric rabbit/human Fab, kappa, with 6xHis tag; also called Fab 3N07; 3N07 r/h-IgG1k) VH: QSLEESGGRLVTPGTPLTLTCTVSGFSLSRYTMAWVRQAPGKGLEYIGWIDSSGSTYYASWAKGRFTISKTSSTTVDLKMTSLTTEDTATYFCASGNDGGDPLYYGMDPWGPGTLVTVSS VL: DGVMTQTPSSTSAAVGGTVTIKCQASQSIRSWLSWYQQKPGQPPKLLIYEASKLASGVPSRFKGSRSGTEYTLAISGVQREDAATYYCLGSIASDDTAFGAGTNVEIK | binds | binds | binds |  |  |  | 
7 | 4S12 (Fab, V domains shown, Chimeric rabbit/human Fab, lambda, with 6xHis tag) VH: QEQLVESGGRLVTPGTPLTLTCTVSGFSLSSYHMSWVRQAPGKGLEWIGIIYFTGDASYASWAKGRFTISKTSPTTVDLKITSPTTEDTATYFCARDTDWNSSRTIPFDPWGPGTLVTVSS VL: SFVLTQPASVQVNLGQTVSLTCTADTLSRTYASWYQQKPGQAPVLLIYRDTSRPSGVPDRFSGSSSGNTATLTISGAQAGDEADYYCATSDGSGSSYQYVFGGGTQLTVTG | binds | binds | binds |  |  |  | 
8 | 5S8 (Fab, V domains shown, Chimeric rabbit/human Fab, kappa, with 6xHis tag in SPR, zymosan and JeKo-1 assays; also called Fab 5S8; 5S8 r/h-IgG1k) VH: QSVEESGGRLVTPGTPLTLTCTVSGFSLSSYAMTWVRQAPGKGLEWIGVIGTSGMRYYANWAKGRFTISKTSTTVDLKITSPTTEDTATYFCARANFYVGNDESTDAFDPWGPGTLVTVSS VL: ALVMTQTPPSLSASVGETVRIRCLASEDIYNTISWYQQKPGKPPTLLIYGASNLKSGVPPRFSGSGSGTDYTLTIGGVQSEDAATYYCLGGYSYSSTGLTFGAGTKVEIK |  |  |  | binds | binds | binds | 
